Experimental data as given in the supplement of paper PMC6411743.
± gives the standard deviation of the averaged measurements. The list shows a part of the results.

The chains behind the UniProt entries cited, without tags or fusion partners. Where a name states a change or a piece, a line headed by the entry shows the natural chain unless it says otherwise.
UniProt P31323, whole entry: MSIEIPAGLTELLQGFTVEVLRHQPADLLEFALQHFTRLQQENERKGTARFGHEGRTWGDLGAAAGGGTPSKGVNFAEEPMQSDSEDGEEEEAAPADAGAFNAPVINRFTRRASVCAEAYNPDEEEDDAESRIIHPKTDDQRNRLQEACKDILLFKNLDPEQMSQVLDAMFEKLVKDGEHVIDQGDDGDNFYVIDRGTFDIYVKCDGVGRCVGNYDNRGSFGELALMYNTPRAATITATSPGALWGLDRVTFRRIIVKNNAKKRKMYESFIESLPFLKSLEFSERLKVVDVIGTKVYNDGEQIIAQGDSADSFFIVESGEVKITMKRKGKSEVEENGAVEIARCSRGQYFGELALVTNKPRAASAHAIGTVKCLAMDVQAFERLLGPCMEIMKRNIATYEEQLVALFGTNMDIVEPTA
UniProt P30825: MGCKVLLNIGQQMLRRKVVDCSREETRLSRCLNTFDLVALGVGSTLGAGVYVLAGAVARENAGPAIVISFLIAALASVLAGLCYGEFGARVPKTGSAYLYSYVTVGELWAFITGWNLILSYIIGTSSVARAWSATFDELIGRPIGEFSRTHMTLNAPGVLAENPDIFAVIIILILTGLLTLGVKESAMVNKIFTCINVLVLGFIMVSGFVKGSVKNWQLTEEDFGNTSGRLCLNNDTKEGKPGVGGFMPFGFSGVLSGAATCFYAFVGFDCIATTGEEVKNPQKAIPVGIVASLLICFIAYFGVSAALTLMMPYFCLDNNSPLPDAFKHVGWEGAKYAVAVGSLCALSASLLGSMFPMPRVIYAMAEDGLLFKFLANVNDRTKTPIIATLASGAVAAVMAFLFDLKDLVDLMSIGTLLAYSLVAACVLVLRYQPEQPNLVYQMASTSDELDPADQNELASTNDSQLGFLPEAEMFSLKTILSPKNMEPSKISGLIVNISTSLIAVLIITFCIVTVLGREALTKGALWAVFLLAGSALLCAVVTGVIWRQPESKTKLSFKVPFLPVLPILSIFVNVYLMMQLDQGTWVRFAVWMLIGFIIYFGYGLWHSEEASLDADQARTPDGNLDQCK
UniProt P42773: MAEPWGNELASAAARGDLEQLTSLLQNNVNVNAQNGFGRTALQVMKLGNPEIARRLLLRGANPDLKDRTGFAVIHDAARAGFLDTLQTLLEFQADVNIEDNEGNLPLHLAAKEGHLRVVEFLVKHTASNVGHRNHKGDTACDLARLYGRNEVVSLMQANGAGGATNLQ
UniProt P46734: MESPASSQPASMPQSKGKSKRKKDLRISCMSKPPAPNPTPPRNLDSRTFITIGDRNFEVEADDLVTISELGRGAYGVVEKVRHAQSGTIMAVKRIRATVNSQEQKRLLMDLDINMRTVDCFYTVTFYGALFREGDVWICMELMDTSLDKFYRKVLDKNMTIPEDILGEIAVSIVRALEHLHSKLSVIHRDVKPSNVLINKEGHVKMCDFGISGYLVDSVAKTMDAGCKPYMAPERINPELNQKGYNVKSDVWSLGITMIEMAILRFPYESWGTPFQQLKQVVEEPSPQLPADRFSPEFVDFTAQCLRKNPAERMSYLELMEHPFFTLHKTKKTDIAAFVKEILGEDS
UniProt P41223: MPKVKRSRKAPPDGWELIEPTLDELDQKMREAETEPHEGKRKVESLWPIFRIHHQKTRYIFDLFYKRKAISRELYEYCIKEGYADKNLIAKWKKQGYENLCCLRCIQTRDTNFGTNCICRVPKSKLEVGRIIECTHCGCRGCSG
UniProt P46939: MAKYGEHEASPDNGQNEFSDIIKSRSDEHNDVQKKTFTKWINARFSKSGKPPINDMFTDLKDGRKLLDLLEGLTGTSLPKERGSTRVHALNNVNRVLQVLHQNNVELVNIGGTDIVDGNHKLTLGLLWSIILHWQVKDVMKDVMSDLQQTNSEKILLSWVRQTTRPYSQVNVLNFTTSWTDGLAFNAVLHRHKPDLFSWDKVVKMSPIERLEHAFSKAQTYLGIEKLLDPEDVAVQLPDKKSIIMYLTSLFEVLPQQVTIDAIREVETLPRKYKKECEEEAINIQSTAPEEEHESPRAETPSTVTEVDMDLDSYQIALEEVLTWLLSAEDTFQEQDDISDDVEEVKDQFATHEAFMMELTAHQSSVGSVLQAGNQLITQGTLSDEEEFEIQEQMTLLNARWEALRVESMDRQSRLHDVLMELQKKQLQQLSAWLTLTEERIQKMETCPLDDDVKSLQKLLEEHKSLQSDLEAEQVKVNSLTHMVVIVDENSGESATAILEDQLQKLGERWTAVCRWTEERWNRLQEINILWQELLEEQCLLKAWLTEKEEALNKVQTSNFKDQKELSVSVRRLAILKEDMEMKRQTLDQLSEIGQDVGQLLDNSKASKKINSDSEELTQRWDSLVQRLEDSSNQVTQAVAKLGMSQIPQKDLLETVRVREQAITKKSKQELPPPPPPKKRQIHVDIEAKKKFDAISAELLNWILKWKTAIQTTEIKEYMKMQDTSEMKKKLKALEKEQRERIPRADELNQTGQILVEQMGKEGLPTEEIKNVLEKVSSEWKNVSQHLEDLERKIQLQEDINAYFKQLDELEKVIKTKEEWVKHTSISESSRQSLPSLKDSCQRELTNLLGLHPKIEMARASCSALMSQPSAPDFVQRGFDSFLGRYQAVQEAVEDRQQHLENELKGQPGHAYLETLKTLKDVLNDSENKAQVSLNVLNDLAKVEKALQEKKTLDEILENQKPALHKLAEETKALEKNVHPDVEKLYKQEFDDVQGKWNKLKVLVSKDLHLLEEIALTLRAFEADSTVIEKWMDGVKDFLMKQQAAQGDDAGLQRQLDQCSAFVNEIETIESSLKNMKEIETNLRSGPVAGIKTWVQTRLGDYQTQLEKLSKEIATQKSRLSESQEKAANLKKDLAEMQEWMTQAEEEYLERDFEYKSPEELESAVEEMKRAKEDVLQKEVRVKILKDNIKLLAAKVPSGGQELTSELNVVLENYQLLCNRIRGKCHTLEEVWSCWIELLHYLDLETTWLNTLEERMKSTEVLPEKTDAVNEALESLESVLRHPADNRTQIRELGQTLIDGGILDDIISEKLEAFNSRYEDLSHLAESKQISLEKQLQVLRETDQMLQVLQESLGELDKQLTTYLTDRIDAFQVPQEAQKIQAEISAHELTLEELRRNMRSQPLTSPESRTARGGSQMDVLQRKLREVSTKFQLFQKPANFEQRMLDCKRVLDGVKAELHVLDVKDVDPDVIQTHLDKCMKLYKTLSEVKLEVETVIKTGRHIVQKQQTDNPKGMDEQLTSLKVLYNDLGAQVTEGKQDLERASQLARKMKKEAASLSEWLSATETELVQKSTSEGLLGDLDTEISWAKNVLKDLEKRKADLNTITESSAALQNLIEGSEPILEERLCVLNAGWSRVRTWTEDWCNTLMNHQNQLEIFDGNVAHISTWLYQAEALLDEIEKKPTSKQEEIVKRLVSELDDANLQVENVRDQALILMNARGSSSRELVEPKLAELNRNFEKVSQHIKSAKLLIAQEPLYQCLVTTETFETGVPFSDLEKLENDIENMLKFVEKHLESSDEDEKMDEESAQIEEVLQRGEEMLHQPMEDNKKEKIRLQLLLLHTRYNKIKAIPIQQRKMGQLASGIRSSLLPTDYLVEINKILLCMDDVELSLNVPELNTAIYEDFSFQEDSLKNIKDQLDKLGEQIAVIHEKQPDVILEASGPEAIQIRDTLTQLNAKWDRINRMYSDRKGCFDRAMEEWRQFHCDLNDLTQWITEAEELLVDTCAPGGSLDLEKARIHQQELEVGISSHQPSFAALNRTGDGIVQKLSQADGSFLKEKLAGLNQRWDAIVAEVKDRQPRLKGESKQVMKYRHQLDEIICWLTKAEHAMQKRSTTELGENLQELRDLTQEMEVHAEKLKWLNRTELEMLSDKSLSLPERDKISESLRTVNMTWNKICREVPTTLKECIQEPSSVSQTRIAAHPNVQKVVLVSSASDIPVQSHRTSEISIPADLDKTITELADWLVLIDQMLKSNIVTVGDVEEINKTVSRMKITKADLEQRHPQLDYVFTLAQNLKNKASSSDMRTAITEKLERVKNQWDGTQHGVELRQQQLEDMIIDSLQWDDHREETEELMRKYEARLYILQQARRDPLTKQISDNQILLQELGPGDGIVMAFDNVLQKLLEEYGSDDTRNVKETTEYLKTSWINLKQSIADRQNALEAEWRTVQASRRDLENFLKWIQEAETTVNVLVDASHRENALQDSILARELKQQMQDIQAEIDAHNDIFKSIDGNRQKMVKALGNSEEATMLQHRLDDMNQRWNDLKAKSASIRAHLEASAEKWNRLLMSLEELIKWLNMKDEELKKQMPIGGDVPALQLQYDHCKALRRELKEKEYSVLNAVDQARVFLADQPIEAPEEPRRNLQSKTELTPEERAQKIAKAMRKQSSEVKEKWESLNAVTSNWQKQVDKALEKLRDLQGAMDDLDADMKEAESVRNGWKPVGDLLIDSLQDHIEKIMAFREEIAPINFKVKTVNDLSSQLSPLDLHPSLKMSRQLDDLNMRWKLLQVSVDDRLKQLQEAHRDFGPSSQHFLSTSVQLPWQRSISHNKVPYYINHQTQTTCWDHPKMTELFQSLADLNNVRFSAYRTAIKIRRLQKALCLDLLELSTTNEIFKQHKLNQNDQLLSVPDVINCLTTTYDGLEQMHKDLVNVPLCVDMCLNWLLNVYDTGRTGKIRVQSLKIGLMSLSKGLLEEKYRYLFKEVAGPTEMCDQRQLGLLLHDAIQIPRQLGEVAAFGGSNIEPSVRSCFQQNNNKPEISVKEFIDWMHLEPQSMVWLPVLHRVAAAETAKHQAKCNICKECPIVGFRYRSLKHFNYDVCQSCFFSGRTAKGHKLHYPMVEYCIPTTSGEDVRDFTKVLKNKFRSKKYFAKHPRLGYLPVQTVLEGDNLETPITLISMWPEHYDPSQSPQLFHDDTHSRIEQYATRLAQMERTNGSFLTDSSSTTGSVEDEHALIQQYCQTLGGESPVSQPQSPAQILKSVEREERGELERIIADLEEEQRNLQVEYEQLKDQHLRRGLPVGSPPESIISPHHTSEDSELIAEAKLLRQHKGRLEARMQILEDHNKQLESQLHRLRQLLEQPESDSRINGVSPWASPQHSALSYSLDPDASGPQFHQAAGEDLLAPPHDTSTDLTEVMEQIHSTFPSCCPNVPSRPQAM
UniProt P31946: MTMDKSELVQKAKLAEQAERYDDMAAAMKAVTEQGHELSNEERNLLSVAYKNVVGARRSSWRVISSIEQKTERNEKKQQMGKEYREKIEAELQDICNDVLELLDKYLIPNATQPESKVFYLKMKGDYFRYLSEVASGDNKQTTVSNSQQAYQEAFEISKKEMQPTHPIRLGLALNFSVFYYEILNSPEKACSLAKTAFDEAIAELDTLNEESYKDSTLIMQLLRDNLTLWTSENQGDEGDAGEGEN
UniProt P40227, whole entry: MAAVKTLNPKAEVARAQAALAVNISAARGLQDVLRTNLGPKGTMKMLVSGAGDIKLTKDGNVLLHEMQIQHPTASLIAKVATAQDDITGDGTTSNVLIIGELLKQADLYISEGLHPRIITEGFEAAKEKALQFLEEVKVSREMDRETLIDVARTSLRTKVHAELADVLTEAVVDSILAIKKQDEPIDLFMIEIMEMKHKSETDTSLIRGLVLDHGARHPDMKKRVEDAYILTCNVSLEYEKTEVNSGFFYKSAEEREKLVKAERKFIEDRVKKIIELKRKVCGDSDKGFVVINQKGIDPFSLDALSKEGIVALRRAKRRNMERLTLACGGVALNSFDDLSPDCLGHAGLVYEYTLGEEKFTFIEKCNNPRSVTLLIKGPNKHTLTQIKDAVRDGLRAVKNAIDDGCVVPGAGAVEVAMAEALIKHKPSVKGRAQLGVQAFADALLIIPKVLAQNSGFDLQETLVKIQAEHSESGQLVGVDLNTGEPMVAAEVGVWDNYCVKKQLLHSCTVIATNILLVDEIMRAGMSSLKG
UniProt P43490: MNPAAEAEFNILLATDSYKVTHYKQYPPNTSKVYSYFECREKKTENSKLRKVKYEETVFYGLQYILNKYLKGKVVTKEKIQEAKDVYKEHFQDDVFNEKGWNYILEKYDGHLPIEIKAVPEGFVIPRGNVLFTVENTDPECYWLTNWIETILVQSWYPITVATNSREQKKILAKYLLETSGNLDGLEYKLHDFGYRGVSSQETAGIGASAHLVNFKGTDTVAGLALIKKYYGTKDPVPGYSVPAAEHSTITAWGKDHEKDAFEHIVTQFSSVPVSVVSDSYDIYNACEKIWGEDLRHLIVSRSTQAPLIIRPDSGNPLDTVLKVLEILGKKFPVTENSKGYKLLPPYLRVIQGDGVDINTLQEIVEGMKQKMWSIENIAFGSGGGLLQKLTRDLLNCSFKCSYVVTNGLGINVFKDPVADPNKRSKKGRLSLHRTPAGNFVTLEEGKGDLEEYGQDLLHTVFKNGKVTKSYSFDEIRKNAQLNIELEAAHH
UniProt P35244: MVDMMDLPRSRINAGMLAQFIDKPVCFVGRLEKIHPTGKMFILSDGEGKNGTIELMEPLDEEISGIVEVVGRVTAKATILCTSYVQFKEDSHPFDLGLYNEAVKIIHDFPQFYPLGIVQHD

Compound: Nc1nc2c(ncn2[C@@H]2O[C@H](COP(=O)(O)OP(=O)(O)OP(=O)(O)O)[C@@H](O)[C@H]2O)c(=O)[nH]1 [guanosine triphosphate]
Assay: NP40-soluble protein abundance relative to vehicle (solubility fold change) (ratio); higher = more soluble protein in presence of GTP
How it was run: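 Jurkat crude lysate prepared with a Dounce homogeniser was treated at eight concentrations spanning 0.1 to 10 mM, 10 min at room temperature then 3 min at 37 °C. Solubilisation with 0.8% NP40 and benzonase and ultracentrifugation preceded TMT labelling of the supernatant for LC-MS/MS. Fold change against the detergent-processed vehicle was determined per replicate from vsn-normalised intensities, across three independent experiments.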

Target	NP40-soluble protein abundance (concentration: 0.1mM)	NP40-soluble protein abundance (concentration: 0.5mM)	NP40-soluble protein abundance (concentration: 1mM)	NP40-soluble protein abundance (concentration: 2mM)	NP40-soluble protein abundance (concentration: 4mM)	NP40-soluble protein abundance (concentration: 6mM)	NP40-soluble protein abundance (concentration: 8mM)	NP40-soluble protein abundance (concentration: 10mM)
PRKAR2B (UniProt P31323)	0.914 ± 0.015	0.946 ± 0.045	0.857 ± 0.069	0.884 ± 0.03	0.913 ± 0.013	0.95 ± 0.079	0.943 ± 0.044	0.983 ± 0.024
RFC3 (UniProt P40938)	1.05 ± 0.035	1.13 ± 0.075	1.08 ± 0.075	1.16 ± 0.16	1.23 ± 0.14	1.21 ± 0.16	1.19 ± 0.068	1.2 ± 0.11
MCM2 (UniProt P49736)	1.01 ± 0.052	1.07 ± 0.071	0.975 ± 0.074	0.985 ± 0.099	0.974 ± 0.1	0.983 ± 0.1	0.944 ± 0.083	0.929 ± 0.074
UniProt P29353 and related entries	1.04 ± 0.043	1.03 ± 0.049	0.977 ± 0.09	0.978 ± 0.05	1.01 ± 0.048	0.989 ± 0.048	1.03 ± 0.059	0.944 ± 0.05
SLC7A1 (UniProt P30825)	1.16 ± 0.18	1.07 ± 0.085	1.06 ± 0.17	1.05 ± 0.11	1.09 ± 0.17	1.05 ± 0.2	0.995 ± 0.093	1 ± 0.12
CDKN2C (UniProt P42773)	0.85 ± 0.13	0.753 ± 0.079	1.12 ± 0.24	0.961 ± 0.14	0.931 ± 0.051	1.06 ± 0.11	0.884 ± 0.17	0.968 ± 0.32
UniProt P46734 and related entries	1.02 ± 0.17	1.05 ± 0.12	0.957 ± 0.036	0.946 ± 0.098	0.947 ± 0.094	0.954 ± 0.087	0.987 ± 0.085	0.983 ± 0.12
UniProt P41223	1.04 ± 0.11	0.952 ± 0.072	1.02 ± 0.061	1.04 ± 0.11	1.09 ± 0.09	1.03 ± 0.078	0.976 ± 0.12	1.08 ± 0.14
CRKL (UniProt P46109)	0.973 ± 0.029	0.958 ± 0.058	0.967 ± 0.092	0.932 ± 0.073	0.921 ± 0.076	0.906 ± 0.089	0.923 ± 0.093	0.876 ± 0.086
MYH9 (UniProt P35579)	0.968 ± 0.067	1 ± 0.071	1.01 ± 0.074	0.953 ± 0.076	0.974 ± 0.076	0.981 ± 0.07	1.03 ± 0.11	0.991 ± 0.1
UniProt P33527 and related entries	0.9975 ± 0.0032	0.997 ± 0.043	0.954 ± 0.018	0.969 ± 0.03	0.953 ± 0.028	0.948 ± 0.017	0.939 ± 0.02	0.9274 ± 0.0024
UTRN (UniProt P46939)	1 ± 0.043	0.978 ± 0.034	1.02 ± 0.051	0.987 ± 0.058	0.999 ± 0.053	0.993 ± 0.043	1.03 ± 0.061	0.985 ± 0.052
UniProt P43155 and related entries	1.09 ± 0.042	1.06 ± 0.012	1.02 ± 0.019	0.975 ± 0.032	1.03 ± 0.07	1 ± 0.047	0.995 ± 0.085	0.994 ± 0.072
CBX5 (UniProt P45973)	0.913 ± 0.025	0.936 ± 0.053	1.08 ± 0.036	1.1 ± 0.1	1.22 ± 0.069	1.29 ± 0.088	1.39 ± 0.054	1.48 ± 0.046
FDFT1 (UniProt P37268)	0.972 ± 0.027	0.949 ± 0.018	0.896 ± 0.032	0.91 ± 0.037	0.878 ± 0.024	0.872 ± 0.034	0.815 ± 0.039	0.824 ± 0.052
CMPK1 (UniProt P30085)	0.939 ± 0.02	0.917 ± 0.029	0.909 ± 0.044	0.873 ± 0.048	0.874 ± 0.057	0.876 ± 0.04	0.869 ± 0.099	0.866 ± 0.053
CTCF (UniProt P49711)	0.982 ± 0.047	1.02 ± 0.027	0.931 ± 0.053	0.911 ± 0.032	0.89 ± 0.043	0.853 ± 0.043	0.839 ± 0.05	0.818 ± 0.052
TUFM (UniProt P49411)	0.98912 ± 0.00053	1.02 ± 0.051	0.952 ± 0.013	0.941 ± 0.019	0.922 ± 0.021	0.9086 ± 0.0014	0.904 ± 0.042	0.868 ± 0.053
UniProt P31946 and related entries	0.802 ± 0.086	0.796 ± 0.052	0.977 ± 0.11	0.962 ± 0.029	0.884 ± 0.041	0.964 ± 0.051	0.875 ± 0.11	1.04 ± 0.14
LRPAP1 (UniProt P30533)	0.95 ± 0.047	0.973 ± 0.084	1.04 ± 0.059	1.11 ± 0.12	1.2 ± 0.1	1.25 ± 0.098	1.23 ± 0.14	1.32 ± 0.068
CCT6A (UniProt P40227)	1.05 ± 0.066	1.1 ± 0.14	1.08 ± 0.15	1.06 ± 0.18	0.979 ± 0.13	1.03 ± 0.19	1.09 ± 0.25	0.962 ± 0.18
NAMPT (UniProt P43490)	0.996 ± 0.022	0.979 ± 0.017	0.927 ± 0.029	0.914 ± 0.033	0.92 ± 0.043	0.895 ± 0.014	0.869 ± 0.038	0.844 ± 0.067
UniProt P38159 and related entries	1.02 ± 0.048	1.02 ± 0.027	1.18 ± 0.036	1.29 ± 0.043	1.47 ± 0.052	1.65 ± 0.1	1.8 ± 0.15	2.04 ± 0.32
HIBADH (UniProt P31937)	0.951 ± 0.062	0.993 ± 0.025	0.986 ± 0.035	0.962 ± 0.089	0.941 ± 0.032	0.953 ± 0.063	0.97 ± 0.012	0.984 ± 0.072
PIK3CG (UniProt P48736)	1.13 ± 0.23	1.03 ± 0.17	1.02 ± 0.24	1.03 ± 0.12	1.07 ± 0.027	1.01 ± 0.092	0.963 ± 0.067	0.886 ± 0.05
RPA3 (UniProt P35244)	0.925 ± 0.12	0.913 ± 0.082	0.96 ± 0.13	0.935 ± 0.1	0.906 ± 0.085	0.932 ± 0.07	0.891 ± 0.13	0.934 ± 0.1
UniProt P49589-3|P49589	0.971 ± 0.031	0.976 ± 0.031	0.953 ± 0.027	0.926 ± 0.018	0.928 ± 0.011	0.911 ± 0.015	0.917 ± 0.039	0.9 ± 0.019
UniProt P41229 and related entries	1.08 ± 0.017	1.01 ± 0.03	1.05 ± 0.049	1.04 ± 0.054	1.008 ± 0.006	1.04 ± 0.078	0.938 ± 0.15	0.984 ± 0.074
UniProt P49366 and related entries	0.949 ± 0.078	0.958 ± 0.056	0.951 ± 0.069	0.913 ± 0.075	0.918 ± 0.07	0.92 ± 0.056	0.889 ± 0.086	0.894 ± 0.079
P42166 and related entries (UniProt P42167+P42166)	0.949 ± 0.034	0.973 ± 0.039	1.02 ± 0.037	1.01 ± 0.067	1.01 ± 0.053	1.02 ± 0.057	1.03 ± 0.062	1.05 ± 0.063

A second format for some results above:
Target,NP40-soluble protein abundance (concentration: 0.1mM),NP40-soluble protein abundance (concentration: 0.5mM),NP40-soluble protein abundance (concentration: 1mM),NP40-soluble protein abundance (concentration: 2mM),NP40-soluble protein abundance (concentration: 4mM),NP40-soluble protein abundance (concentration: 6mM),NP40-soluble protein abundance (concentration: 8mM),NP40-soluble protein abundance (concentration: 10mM)
UniProt P31946 and related entries,0.802 ± 0.086,0.796 ± 0.052,0.977 ± 0.11,0.962 ± 0.029,0.884 ± 0.041,0.964 ± 0.051,0.875 ± 0.11,1.04 ± 0.14
LRPAP1 (UniProt P30533),0.95 ± 0.047,0.973 ± 0.084,1.04 ± 0.059,1.11 ± 0.12,1.2 ± 0.1,1.25 ± 0.098,1.23 ± 0.14,1.32 ± 0.068
